Data: paper doi:10.1101/2020.09.09.289009
These are yes or no findings as the source states them, for the method shown. In cells and extracts the contact can be indirect. These calls come from enrichment with a bait or labelling near it, and not all partners need be listed.

Sequences of proteins named here, by UniProt entry; tags and fusion partners are left off.
UniProt Q96JI7: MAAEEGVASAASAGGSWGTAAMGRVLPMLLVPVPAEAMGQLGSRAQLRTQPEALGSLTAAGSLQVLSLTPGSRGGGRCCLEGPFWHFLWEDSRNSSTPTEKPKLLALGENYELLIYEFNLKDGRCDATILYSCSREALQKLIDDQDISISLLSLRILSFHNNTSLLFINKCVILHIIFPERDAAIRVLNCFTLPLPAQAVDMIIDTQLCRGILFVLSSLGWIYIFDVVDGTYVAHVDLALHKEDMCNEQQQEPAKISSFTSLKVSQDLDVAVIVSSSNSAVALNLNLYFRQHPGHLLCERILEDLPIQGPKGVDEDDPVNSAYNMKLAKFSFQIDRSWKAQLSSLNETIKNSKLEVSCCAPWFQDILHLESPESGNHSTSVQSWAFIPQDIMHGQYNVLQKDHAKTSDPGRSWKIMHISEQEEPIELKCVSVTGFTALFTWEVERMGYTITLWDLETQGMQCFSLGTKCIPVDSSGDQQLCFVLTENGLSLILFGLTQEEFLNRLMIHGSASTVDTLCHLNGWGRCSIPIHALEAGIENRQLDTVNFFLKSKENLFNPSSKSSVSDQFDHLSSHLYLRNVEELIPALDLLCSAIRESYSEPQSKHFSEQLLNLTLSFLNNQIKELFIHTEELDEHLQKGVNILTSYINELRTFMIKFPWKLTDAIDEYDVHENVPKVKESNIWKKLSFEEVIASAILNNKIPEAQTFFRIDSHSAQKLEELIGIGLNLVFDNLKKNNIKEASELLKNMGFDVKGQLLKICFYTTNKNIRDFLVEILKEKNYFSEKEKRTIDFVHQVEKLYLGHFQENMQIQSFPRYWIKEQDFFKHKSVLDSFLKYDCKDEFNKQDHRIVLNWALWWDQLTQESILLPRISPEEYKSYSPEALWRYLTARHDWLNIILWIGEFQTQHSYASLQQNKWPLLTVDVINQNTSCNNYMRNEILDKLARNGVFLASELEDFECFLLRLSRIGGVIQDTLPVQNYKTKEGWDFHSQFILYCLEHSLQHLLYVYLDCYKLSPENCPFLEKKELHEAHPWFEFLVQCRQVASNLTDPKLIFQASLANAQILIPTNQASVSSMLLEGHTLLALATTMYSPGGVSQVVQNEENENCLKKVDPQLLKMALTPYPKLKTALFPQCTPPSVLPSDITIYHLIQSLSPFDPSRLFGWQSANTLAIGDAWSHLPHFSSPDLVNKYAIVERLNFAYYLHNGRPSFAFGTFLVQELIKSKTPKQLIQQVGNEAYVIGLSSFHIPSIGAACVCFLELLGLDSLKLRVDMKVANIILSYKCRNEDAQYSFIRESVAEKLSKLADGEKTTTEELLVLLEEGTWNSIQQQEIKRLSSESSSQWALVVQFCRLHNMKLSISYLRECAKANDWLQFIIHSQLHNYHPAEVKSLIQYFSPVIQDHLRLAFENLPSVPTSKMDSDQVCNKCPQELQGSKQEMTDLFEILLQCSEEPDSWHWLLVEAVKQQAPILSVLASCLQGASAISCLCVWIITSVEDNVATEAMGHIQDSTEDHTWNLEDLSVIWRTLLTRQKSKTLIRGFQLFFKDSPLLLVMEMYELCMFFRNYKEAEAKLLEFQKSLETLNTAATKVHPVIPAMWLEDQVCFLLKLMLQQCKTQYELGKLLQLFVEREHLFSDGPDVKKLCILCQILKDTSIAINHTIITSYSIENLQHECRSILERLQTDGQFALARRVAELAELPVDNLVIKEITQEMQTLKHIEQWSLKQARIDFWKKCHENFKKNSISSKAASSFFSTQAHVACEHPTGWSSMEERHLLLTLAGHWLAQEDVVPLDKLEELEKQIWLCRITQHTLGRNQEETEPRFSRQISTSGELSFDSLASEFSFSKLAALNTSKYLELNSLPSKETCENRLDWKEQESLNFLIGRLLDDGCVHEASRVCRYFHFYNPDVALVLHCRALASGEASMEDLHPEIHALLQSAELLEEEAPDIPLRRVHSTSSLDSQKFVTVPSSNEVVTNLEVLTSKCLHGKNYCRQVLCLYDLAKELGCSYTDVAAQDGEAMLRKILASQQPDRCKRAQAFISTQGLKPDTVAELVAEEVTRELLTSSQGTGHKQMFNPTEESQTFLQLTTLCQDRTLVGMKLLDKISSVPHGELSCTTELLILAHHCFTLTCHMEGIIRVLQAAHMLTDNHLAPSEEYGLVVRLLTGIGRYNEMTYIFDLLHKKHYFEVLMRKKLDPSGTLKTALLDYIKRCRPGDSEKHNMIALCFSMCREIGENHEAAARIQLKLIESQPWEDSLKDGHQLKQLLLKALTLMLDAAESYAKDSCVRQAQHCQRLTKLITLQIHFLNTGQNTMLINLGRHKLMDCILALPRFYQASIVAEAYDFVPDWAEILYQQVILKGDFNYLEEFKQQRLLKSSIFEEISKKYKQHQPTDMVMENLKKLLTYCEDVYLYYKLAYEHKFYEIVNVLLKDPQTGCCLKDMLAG
UniProt P62259: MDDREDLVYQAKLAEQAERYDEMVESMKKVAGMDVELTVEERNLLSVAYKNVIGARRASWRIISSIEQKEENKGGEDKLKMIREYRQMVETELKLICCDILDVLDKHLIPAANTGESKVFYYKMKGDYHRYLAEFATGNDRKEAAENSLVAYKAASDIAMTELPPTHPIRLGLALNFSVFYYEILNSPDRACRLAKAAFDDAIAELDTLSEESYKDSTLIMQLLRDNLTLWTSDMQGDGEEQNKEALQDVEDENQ
UniProt P68510: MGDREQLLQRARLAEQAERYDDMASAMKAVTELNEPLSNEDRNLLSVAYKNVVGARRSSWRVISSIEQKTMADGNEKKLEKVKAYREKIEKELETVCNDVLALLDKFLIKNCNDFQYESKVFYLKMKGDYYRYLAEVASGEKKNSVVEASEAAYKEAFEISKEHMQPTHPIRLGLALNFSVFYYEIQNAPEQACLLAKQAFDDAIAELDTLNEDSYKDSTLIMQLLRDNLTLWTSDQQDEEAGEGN
UniProt P63101: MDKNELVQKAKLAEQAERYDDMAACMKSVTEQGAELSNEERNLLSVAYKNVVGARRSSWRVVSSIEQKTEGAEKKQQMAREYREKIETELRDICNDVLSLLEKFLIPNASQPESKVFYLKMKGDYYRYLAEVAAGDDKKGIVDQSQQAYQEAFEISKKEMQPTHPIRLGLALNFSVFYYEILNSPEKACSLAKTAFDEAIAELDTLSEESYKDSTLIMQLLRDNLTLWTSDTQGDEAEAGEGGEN

B1: 14-3-3 protein theta (mouse brain) (protein, UniProt P68254 1-245)
chain: MEKTELIQKAKLAEQAERYDDMATCMKAVTEQGAELSNEERNLLSVAYKNVVGGRRSAWRVISSIEQKTDTSDKKLQLIKDYREKVESELRSICTTVLELLDKYLIANATNPESKVFYLKMKGDYFRYLAEVACGDDRKQTIENSQGAYQEAFDISKKEMQPTHPIRLGLALNFSVFYYEILNNPELACTLAKTAFDEAIAELDTLNEDSYKDSTLIMQLLRDNLTLWTSDSAGEECDAAEGAEN
B2: 14-3-3 protein gamma (mouse brain) (protein, UniProt P61982 1-247)
chain: MVDREQLVQKARLAEQAERYDDMAAAMKNVTELNEPLSNEERNLLSVAYKNVVGARRSSWRVISSIEQKTSADGNEKKIEMVRAYREKIEKELEAVCQDVLSLLDNYLIKNCSETQYESKVFYLKMKGDYYRYLAEVATGEKRATVVESSEKAYSEAHEISKEHMQPTHPIRLGLALNYSVFYYEIQNAPEQACHLAKTAFDDAIAELDTLNEDSYKDSTLIMQLLRDNLTLWTSDQQDDDGGEGNN
B3: 14-3-3 protein beta (mouse brain) (protein, UniProt Q9CQV8 1-246)
chain: MTMDKSELVQKAKLAEQAERYDDMAAAMKAVTEQGHELSNEERNLLSVAYKNVVGARRSSWRVISSIEQKTERNEKKQQMGKEYREKIEAELQDICNDVLELLDKYLILNATQAESKVFYLKMKGDYFRYLSEVASGENKQTTVSNSQQAYQEAFEISKKEMQPTHPIRLGLALNFSVFYYEILNSPEKACSLAKTAFDEAIAELDTLNEESYKDSTLIMQLLRDNLTLWTSENQGDEGDAGEGEN

target: 3xFlag-tagged spatacsin (wild type), from HeLa cells (human) (UniProt Q96JI7); experiment: affinity purification with mass spectrometry

binding, binds:
14-3-3 protein epsilon (mouse brain) (from UniProt P62259 1-255)
14-3-3 protein eta (mouse brain) (from UniProt P68510 1-246)
14-3-3 protein zeta (mouse brain) (from UniProt P63101 1-245)
B1
B2
B3
